Some of the results follow.
molecular target: T1, OsSMF1 (Oryza sativa, UniProt Q6ZLB0 1-436); assay: protein-binding microarray (RPBM); PBS, 2% BSA, 51.3 ng/ul salmon testes DNA, 50 uM zinc acetate, 200 nM TF, 25 C, 1 h; high values mean tight binding; conditions: protein: recombinant; tags: N-terminal polyhistidine and DsRed monomer fusion (pET32a); chain copies: 2; label: CyDye5-dUTP incorporated in the synthesized complementary strand; 3' TTTTT single-stranded linker to array surface; dsDNA, one strand shown
T1 sequence: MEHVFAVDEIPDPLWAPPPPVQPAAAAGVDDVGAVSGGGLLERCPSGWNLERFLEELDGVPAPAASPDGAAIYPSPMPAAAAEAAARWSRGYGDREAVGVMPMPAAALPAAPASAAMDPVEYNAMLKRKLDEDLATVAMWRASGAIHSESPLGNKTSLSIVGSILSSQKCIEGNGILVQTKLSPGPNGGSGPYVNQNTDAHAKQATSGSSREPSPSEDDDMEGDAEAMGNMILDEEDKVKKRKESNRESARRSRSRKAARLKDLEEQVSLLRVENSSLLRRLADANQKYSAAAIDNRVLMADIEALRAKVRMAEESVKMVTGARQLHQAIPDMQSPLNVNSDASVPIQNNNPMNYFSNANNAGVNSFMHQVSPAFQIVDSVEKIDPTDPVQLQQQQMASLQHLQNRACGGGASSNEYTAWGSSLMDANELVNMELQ
How it was run: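 The binding signal is fluorescence intensity per feature, in arbitrary units, read on an Axon 4000B scanner. Polyhistidine- and DsRed-tagged transcription factors (N-terminal fusions) from E. coli BL21-CodonPlus were purified on Ni–NTA and applied at 200 nM for 1 h at 25 °C to a double-stranded, BSA-blocked custom Agilent array in buffer with 50 µM zinc acetate.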

Row | Sequence | binding signal
1 | CATCGGTCATGGTGGCGTTGGTCATGTTGGCATGGCCGTCCGGAGTCACCTAGTGCAG | 44000 fluorescence intensity (a.u.)
2 | CAAATAGCTTGCCACACCACGCTCATACACAAATTATGCACGGAGTCACCTAGTGCAG | 3410 fluorescence intensity (a.u.)
3 | GCATGCAGGGCATGGCGAGACGGTGACGTGCTCCAAGGCGCGGAGTCACCTAGTGCAG | 4760 fluorescence intensity (a.u.)
4 | TCGAGTTGGCCGGCGGCGAGGCTTGGGGACGGCGGGGTGGCGGAGTCACCTAGTGCAG | 4730 fluorescence intensity (a.u.)
5 | TGGATCCAGTTGCATGTATTATGTAAGAAATAAAATGTTGCGGAGTCACCTAGTGCAG | 3920 fluorescence intensity (a.u.)
6 | AAAGCAACAGCAGCCCAGCACACCACAGCACAGCGCCGCTCGGAGTCACCTAGTGCAG | 3180 fluorescence intensity (a.u.)
7 | GGAGAGGAGGGGAGAGGGTATGACGTGGCCAGCTGACATGCGGAGTCACCTAGTGCAG | 15700 fluorescence intensity (a.u.)
8 | GGCAGTGCGGCGGCGGCGACTTCCGGCTGCGTCGGCGGAACGGAGTCACCTAGTGCAG | 20000 fluorescence intensity (a.u.)
9 | AATCTGCGTAGGTACATCCTAAGAAGATATTTTGCGTTCACGGAGTCACCTAGTGCAG | 3410 fluorescence intensity (a.u.)
10 | TACACCTGCCACTGCTGCTGACCCTGCCAACCCCAACAAGCGGAGTCACCTAGTGCAG | 3640 fluorescence intensity (a.u.)
11 | AACCTGCACGCTCATGTTGTTGTTTTGTGAAGATGCAACTCGGAGTCACCTAGTGCAG | 3390 fluorescence intensity (a.u.)
12 | AGAATTTTCCATATCTTAAGTCCATGCATGCCGTCAGCAGCGGAGTCACCTAGTGCAG | 5810 fluorescence intensity (a.u.)
13 | TTGACGGCTCTGACTCGTGCTGACGTGGCACGTGGCGAACCGGAGTCACCTAGTGCAG | 28700 fluorescence intensity (a.u.)
14 | GACTGTATATATCCCGTAGCCGGCGTCGTCACCCTCGTTGCGGAGTCACCTAGTGCAG | 4600 fluorescence intensity (a.u.)
15 | TAGAAAATTGTATTTAAAGTATATGTGAGTAGTGTCTATCCGGAGTCACCTAGTGCAG | 28600 fluorescence intensity (a.u.)
16 | ACCGCCGCGCTCGCACGCCGCCTCCGTCGGCCGCCGTGGCCGGAGTCACCTAGTGCAG | 3660 fluorescence intensity (a.u.)
17 | GCCGGTGAGCATCCCTCCCTACCCACACCTCATCAGGTATCGGAGTCACCTAGTGCAG | 3160 fluorescence intensity (a.u.)
18 | TATACACGCAGAGAGATAATGACAGCGTGGCCATGGACTTCGGAGTCACCTAGTGCAG | 4420 fluorescence intensity (a.u.)
19 | TTCTCCGGCCGCCGCCGCCATCGCCGCCGGCCGTAGCATGCGGAGTCACCTAGTGCAG | 56000 fluorescence intensity (a.u.)
20 | GTGCGACGATTGCTGAGCGAGCACGCCACGGGGTGGGGCGCGGAGTCACCTAGTGCAG | 4040 fluorescence intensity (a.u.)
21 | ATTTAAAATAGTTTTGTACGCATGCGTGACGCTGACGTCACGGAGTCACCTAGTGCAG | 15400 fluorescence intensity (a.u.)
22 | AAGCAGGATCCGCGGCGAGCAAGCCTGCGACATCGCCTTTCGGAGTCACCTAGTGCAG | 4490 fluorescence intensity (a.u.)
23 | ACTCCTAGCTTGGCACGTGACCTATGCGTGATCCGCAACCCGGAGTCACCTAGTGCAG | 3220 fluorescence intensity (a.u.)
24 | CATATCCATGTCATCCTCATCCTCTGCCCCTTGTTCATCCCGGAGTCACCTAGTGCAG | 7200 fluorescence intensity (a.u.)
25 | GAGAGGAGGAGGAAGAGGGGCTCTAGTTGAAGAGAGGGAGCGGAGTCACCTAGTGCAG | 3210 fluorescence intensity (a.u.)
26 | GTAGCGTCCCTATTTAACGTATCCACACGCATCACAAGATCGGAGTCACCTAGTGCAG | 4750 fluorescence intensity (a.u.)
27 | TTGTAAATGATATGTCATGTGTGTATGATGTTTAAAATACCGGAGTCACCTAGTGCAG | 3790 fluorescence intensity (a.u.)

Part of the list above, field by field.
AATCTGCGTAGGTACATCCTAAGAAGATATTTTGCGTTCACGGAGTCACCTAGTGCAG
  binding signal: 3410 fluorescence intensity (a.u.)
TACACCTGCCACTGCTGCTGACCCTGCCAACCCCAACAAGCGGAGTCACCTAGTGCAG
  binding signal: 3640 fluorescence intensity (a.u.)

(listing goes on)

Row | Sequence | binding signal
28 | AAACCTGATCAGTTGGACGAGGTAAACAAGTGGTGGATATCGGAGTCACCTAGTGCAG | 28700 fluorescence intensity (a.u.)
29 | AAAACCACACGCATTTTGACACTTAGCACTTGATTACATACGGAGTCACCTAGTGCAG | 5320 fluorescence intensity (a.u.)
30 | CATCAATCCTCTGCTTGGTATGTTGCTGTCACTCCCTGTGCGGAGTCACCTAGTGCAG | 3900 fluorescence intensity (a.u.)
31 | AATCTGGATAGATGCGCTGACGTAGTGACGTGGTTAAATTCGGAGTCACCTAGTGCAG | 14600 fluorescence intensity (a.u.)
32 | TGCGCATGGTAGGAAGGTTATGACGTGTTTGTATTCTCTTCGGAGTCACCTAGTGCAG | 8550 fluorescence intensity (a.u.)
33 | TCTGTGTTTCCTCTGTTTGAGCTGACAATACGTCTGCTATCGGAGTCACCTAGTGCAG | 3230 fluorescence intensity (a.u.)
34 | ACATGACGAGAAAAGTTGTCATGGTAGTCCAAACCGCAACCGGAGTCACCTAGTGCAG | 4260 fluorescence intensity (a.u.)
35 | GAGCCTAGTCAACTCGCCCACGTGGACCAATTGTTCATCGCGGAGTCACCTAGTGCAG | 12800 fluorescence intensity (a.u.)
36 | TTAGATCACCTTTTAACCAATAATCGTAACTTTGTGACACCGGAGTCACCTAGTGCAG | 37000 fluorescence intensity (a.u.)
37 | GCTCGCCATGATGGCCGGTGTGGTAGCTTGGATGGTTAAACGGAGTCACCTAGTGCAG | 4980 fluorescence intensity (a.u.)
38 | TTTTGGCACGTGCGTGGCTACTCGATCGATCTCCCTATTTCGGAGTCACCTAGTGCAG | 6830 fluorescence intensity (a.u.)
39 | ATGCAACGTAAGCGCTACGTAGGACTAAGACTGGGTCAATCGGAGTCACCTAGTGCAG | 5320 fluorescence intensity (a.u.)
40 | CCCATCGGTGTCATGTTTAGGCGCGGTGTCTGCACGCGTGCGGAGTCACCTAGTGCAG | 3310 fluorescence intensity (a.u.)
41 | TAGAGCGCCACATGACATCTTAGAAGCGTTTGTAGGAGTACGGAGTCACCTAGTGCAG | 30400 fluorescence intensity (a.u.)
42 | CAGGCAATCCACGCCGTCCATCTCCGCGGCCGCGTCACACCGGAGTCACCTAGTGCAG | 10300 fluorescence intensity (a.u.)
43 | GCCCTCGCGGCCGCCCGCGCGCGCGTCATCGTCGTCTCGACGGAGTCACCTAGTGCAG | 3850 fluorescence intensity (a.u.)
44 | CCGAACTCCACCTCCCAGTTTCCCACGGGACCGTCTCCCACGGAGTCACCTAGTGCAG | 3850 fluorescence intensity (a.u.)
45 | TTGTTGTCAACTCGCTGACTATTCCTCTCTTAGTTGGCATCGGAGTCACCTAGTGCAG | 5270 fluorescence intensity (a.u.)
46 | CTACCGTGATCCTGACACCTACCGCATGGTTCACAATCCCCGGAGTCACCTAGTGCAG | 3790 fluorescence intensity (a.u.)
47 | GAGTGGAGAAGGCGCGCCACCGTCGCTAGAGCCGATGCTGCGGAGTCACCTAGTGCAG | 47700 fluorescence intensity (a.u.)
48 | CTAACTTTTCGGCTGGTAGGCCCAACGGGAGATTGCCATCCGGAGTCACCTAGTGCAG | 3760 fluorescence intensity (a.u.)
49 | CAAAGTATACGTGTTTTCACCTCAATTAATTGTGCTCATTCGGAGTCACCTAGTGCAG | 3830 fluorescence intensity (a.u.)
50 | AATCGCCCGCTGCAGGAGTCAAGTCTTCAGGCTTAGCTCGCGGAGTCACCTAGTGCAG | 37800 fluorescence intensity (a.u.)
51 | AGAAGAGGTGATGTATAAAACATGTCACGATTTAATATCTCGGAGTCACCTAGTGCAG | 4070 fluorescence intensity (a.u.)
52 | GCTGAGCAGGAGAGGGGCGCCGATCTCCATCCGGCGAGCACGGAGTCACCTAGTGCAG | 5450 fluorescence intensity (a.u.)
53 | TCATTGCAGATACTGGTGATGGTGGCAACTCGACTTATGCCGGAGTCACCTAGTGCAG | 3650 fluorescence intensity (a.u.)
54 | ATTGCTGTTGCGTCCACGTCAAAAGCAGGCAGCAAATACACGGAGTCACCTAGTGCAG | 3240 fluorescence intensity (a.u.)

From publication PMC7819943, “Rice protein-binding microarrays: a tool to detect cis-acting elements near promoter regions in rice”
